# This is one part of the list. The main result of the screen is listed elsewhere. These columns were measured beside it and carry no call. Compounds called inactive in the main read-out are mostly missing here. Potencies come from curve fits of mixed quality, noted in brackets.
# Experiment: qHTS Assay for Modulators of Lamin A Splicing
# Conditions: HeLa LMNA splicing GFP/RFP minigene ratio, 48 h
# Procedure, shortened: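 S3 HeLa stable clones carrying a lamin A-EGFP splicing minigene plus DsRed2 were seeded at 600 cells/well in Opti-MEM with 2% FBS, pin-dosed and incubated 48 h at 37°C. Acumen cytometry (488 nm) gave the GFP/RFP total-intensity ratio.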
# [1] = measured here: GFP splicing reporter channel
# [2] = measured here: RFP viability control channel
SMILES,AC50 [1],AC50 [2]
C=CCOc1c(Br)cc(/C=N/Nc2ccc(C(=O)O)cc2)cc1OCC,"31.6 µM [rising, single point]","35.5 µM [rising, single point]"
COc1ccc(C2CC(c3cccs3)=NN2c2ccc(F)cc2)cc1OC (stereo unspecified),,"11.2 µM [rising, single point]"
Cc1ccc(OCCOCCOc2ccc(Br)cc2/C=N\NC(=O)c2ccncc2)cc1,"14.1 µM [rising, single point]","35.5 µM [rising, single point]"
CCOC(=O)C1=C(c2ccccc2)NC(SCC(=O)Nc2ccccc2C)=C(C#N)C1c1ccco1 (stereo unspecified),,"10 µM [rising, single point]"
COc1cc(C(=O)NC2=NCCS2)ccc1OCc1c(C)noc1C,"35.5 µM [rising, single point]",
Cc1[nH]nc(-c2ccc(O)c(C)c2O)c1Oc1ccccc1,,"11.2 µM [rising, single point]"
O=C(NCc1cccnc1)c1ccc(COc2ccccc2Br)cc1,,"35.5 µM [rising, single point]"
S=C(NNc1ccc2ccccc2c1)NC1CCCCC1,,"35.5 µM [rising, single point]"
CC(C)(C)c1ccc(-c2conc2N)cc1,,"12.6 µM [rising, partial curve]"
COc1ccc2cc(CN(Cc3cccs3)Cc3nnnn3Cc3ccccc3)c(=O)[nH]c2c1,,"11.2 µM [rising, partial curve]"
CC(=O)c1sc(NC(=O)C2(F)C(F)(F)C(F)(F)C(F)(F)C(F)(F)C2(F)F)nc1C,,"4.47 µM [rising, partial curve]"
O=C(N1CCN=C1SCc1cccnc1)C12CC3CC(CC(C3)C1)C2,,"22.4 µM [rising, single point]"
CC(=O)Nc1sc2c(c1C(c1ccncc1)N1CCOCC1)CCCC2 (stereo unspecified),"0.00282 µM [falling, full curve]","0.00891 µM [falling, full curve]"
CC(=O)c1ccc(OCCCC(=O)Nc2ccc(C)c(S(=O)(=O)N(C)C)c2)cc1,,"25.1 µM [rising, single point]"
Clc1ccc(/C=C/c2nc3ccccc3[nH]2)cc1,,"20 µM [falling, single point]"
Cc1cc(C)c(C#N)c(SCc2ccccc2F)n1,"3.55 µM [falling, single point]","2 µM [falling, full curve]"
CCOc1ccc(Br)cc1S(=O)(=O)Nc1ccccc1N1CCOCC1,"15.8 µM [rising, single point]","15.8 µM [rising, single point]"
O=C(CCl)Nc1ccccc1Sc1ccc(Cl)cc1,"35.5 µM [falling, single point]","35.5 µM [falling, single point]"
CCC(=O)Nc1nc2ccccc2n1Cc1ccccc1C,"35.5 µM [rising, single point]","35.5 µM [rising, single point]"

# A different layout for some results above.
SMILES | AC50 [1] | AC50 [2]
Cc1ccc(OCCOCCOc2ccc(Br)cc2/C=N\NC(=O)c2ccncc2)cc1 | 14.1 µM [rising, single point] | 35.5 µM [rising, single point]
COc1ccc2cc(CN(Cc3cccs3)Cc3nnnn3Cc3ccccc3)c(=O)[nH]c2c1 |  | 11.2 µM [rising, partial curve]
CC(=O)Nc1sc2c(c1C(c1ccncc1)N1CCOCC1)CCCC2 (stereo unspecified) | 0.00282 µM [falling, full curve] | 0.00891 µM [falling, full curve]
Clc1ccc(/C=C/c2nc3ccccc3[nH]2)cc1 |  | 20 µM [falling, single point]
Cc1cc(C)c(C#N)c(SCc2ccccc2F)n1 | 3.55 µM [falling, single point] | 2 µM [falling, full curve]
CCOc1ccc(Br)cc1S(=O)(=O)Nc1ccccc1N1CCOCC1 | 15.8 µM [rising, single point] | 15.8 µM [rising, single point]

# Further entries follow.

SMILES,AC50 [1],AC50 [2]
Cc1ccc(C)c(N2CCN(C(=O)C3CCN(c4nc5ccc(C)cc5[nH]4)CC3)CC2)c1,"2 µM [falling, partial curve]",
CCOc1ccc(C(=O)CCN2CCCCCC2)cc1,,"35.5 µM [falling, single point]"
O=C(NCc1ccncc1)C(=O)NCC(c1ccccc1)c1ccccc1,,"11.2 µM [rising, single point]"
Clc1cccc(C[n+]2cc(-c3ccccc3)n3c2CCC3)c1,"12.6 µM [rising, partial curve]","25.1 µM [rising, partial curve]"
Cc1cccc(CCNC(=O)c2ccc3c(c2)N(Cc2ccccc2F)C(=O)c2ccccc2S3)c1,"0.158 µM [falling, full curve, poor fit]",
Cc1ccc(-c2cc(C(=O)Nc3cc(C)on3)no2)cc1,,"0.0708 µM [rising, full curve, poor fit]"
CC1CCN(CCCOc2ccc(Cl)cc2Br)CC1,"7.08 µM [falling, full curve]","8.91 µM [falling, partial curve, poor fit]"
Cn1cnc(S(=O)(=O)NCc2ccccc2)c1,,"3.55 µM [falling, partial curve, poor fit]"
CCC(C(=O)Nc1cc(OC)cc(OC)c1)n1nc(-c2ccc(C)c(C)c2)ccc1=O (stereo unspecified),,"0.282 µM [falling, full curve, poor fit]"
COc1ccc(C2CC(c3cccs3)=NN2C(=O)CSc2nc3ccccc3o2)cc1 (stereo unspecified),,"17.8 µM [rising, partial curve, poor fit]"
O=c1c(=NNc2ccccc2Cl)c(=O)c2ccccc12,"35.5 µM [falling, single point]","20 µM [falling, partial curve]"
O=C(Nc1ccccc1C(=O)NCCN1CCOCC1)c1ccc(Cl)cc1Cl,"0.0141 µM [rising, full curve, poor fit]",
CC(C)N(C(=O)CSc1nnc(CSc2ncccn2)n1C)C(C)C,"0.0126 µM [falling, full curve, poor fit]",
COc1ccc(F)cc1S(=O)(=O)Nc1ccc2c(c1)OCCO2,,"20 µM [rising, single point]"
CC1=C(C(=O)Nc2ccccc2C(F)(F)F)C(c2sccc2C)NC(=S)N1 (stereo unspecified),"6.31 µM [falling, partial curve, poor fit]","22.4 µM [rising, single point]"
CCc1ccc(CN(Cc2ccco2)c2cnc(S(C)(=O)=O)nc2C(=O)Nc2ccccc2Cl)cc1,"5.62 µM [falling, single point]","6.31 µM [falling, single point]"
CC1CC(N(C(=O)C2CC2)c2ccccc2)c2ccccc2N1C(=O)C1CC1 (stereo unspecified),"10 µM [rising, partial curve]","15.8 µM [rising, partial curve]"
Fc1ccc(Nc2c3c(nc4ccccc24)CCC3)cc1,"2.82 µM [falling, full curve]","2 µM [falling, partial curve, poor fit]"

# Reference: PubChem BioAssay AID1487 (National Center for Advancing Translational Sciences (NCATS), 2009)
